Laboratory results as given in publication PMC12251259.
These are yes or no findings as the source states them, for the method shown. In cells and extracts the contact can be indirect. Here binding means that the protein was enriched with, or labelled near, the bait; the list need not be complete. No binding means not detected with the bait.

Protein sequences, listed by entry. Tags and fused reporters are not part of them.
UniProt P34160: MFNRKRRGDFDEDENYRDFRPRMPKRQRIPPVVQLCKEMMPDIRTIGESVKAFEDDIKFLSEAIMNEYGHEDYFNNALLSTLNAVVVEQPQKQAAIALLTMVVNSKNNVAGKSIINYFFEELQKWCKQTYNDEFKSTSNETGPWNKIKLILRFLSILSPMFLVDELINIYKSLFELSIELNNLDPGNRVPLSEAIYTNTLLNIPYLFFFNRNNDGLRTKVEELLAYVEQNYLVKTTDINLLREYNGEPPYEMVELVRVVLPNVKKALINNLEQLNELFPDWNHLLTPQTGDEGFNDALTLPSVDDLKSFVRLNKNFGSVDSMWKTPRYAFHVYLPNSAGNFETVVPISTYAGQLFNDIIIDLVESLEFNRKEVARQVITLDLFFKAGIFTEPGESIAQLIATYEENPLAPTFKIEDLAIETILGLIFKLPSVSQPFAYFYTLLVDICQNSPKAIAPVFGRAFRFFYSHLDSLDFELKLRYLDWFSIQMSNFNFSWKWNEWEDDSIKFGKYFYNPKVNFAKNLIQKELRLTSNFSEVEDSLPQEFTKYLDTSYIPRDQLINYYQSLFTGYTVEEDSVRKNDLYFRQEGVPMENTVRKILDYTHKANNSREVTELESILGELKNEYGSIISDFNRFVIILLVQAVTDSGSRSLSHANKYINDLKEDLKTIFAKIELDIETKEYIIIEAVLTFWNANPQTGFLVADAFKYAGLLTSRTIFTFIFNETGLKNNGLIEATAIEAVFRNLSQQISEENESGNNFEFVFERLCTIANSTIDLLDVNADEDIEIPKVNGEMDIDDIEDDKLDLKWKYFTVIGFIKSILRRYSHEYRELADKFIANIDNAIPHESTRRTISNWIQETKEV

Biological target: Cbp80-proteinA (S. cerevisiae) (UniProt P34160)
Assay: affinity purification with mass spectrometry; Cbp80-proteinA pulled from cryo-ground yeast extract (WT or hpr1Δ cells) on IgG-conjugated magnetic beads, 30 min at 4°C; 20 mM Hepes pH 7.4, 110 mM KOAc, 75 mM NaCl, 0.1% Tween-20, 0.5% Triton X-100, RNasin; conditions that preserve mRNP integrity; label-free quantitation against a no-tag control, four biological replicates

binding: no binding
B1: Dis3 (protein, UniProt Q08162 1-1001)
chain: MSVPAIAPRRKRLADGLSVTQKVFVRSRNGGATKIVREHYLRSDIPCLSRSCTKCPQIVVPDAQNELPKFILSDSPLELSAPIGKHYVVLDTNVVLQAIDLLENPNCFFDVIVPQIVLDEVRNKSYPVYTRLRTLCRDSDDHKRFIVFHNEFSEHTFVERLPNETINDRNDRAIRKTCQWYSEHLKPYDINVVLVTNDRLNREAATKEVESNIITKSLVQYIELLPNADDIRDSIPQMDSFDKDLERDTFSDFTFPEYYSTARVMGGLKNGVLYQGNIQISEYNFLEGSVSLPRFSKPVLIVGQKNLNRAFNGDQVIVELLPQSEWKAPSSIVLDSEHFDVNDNPDIEAGDDDDNNESSSNTTVISDKQRRLLAKDAMIAQRSKKIQPTAKVVYIQRRSWRQYVGQLAPSSVDPQSSSTQNVFVILMDKCLPKVRIRTRRAAELLDKRIVISIDSWPTTHKYPLGHFVRDLGTIESAQAETEALLLEHDVEYRPFSKKVLECLPAEGHDWKAPTKLDDPEAVSKDPLLTKRKDLRDKLICSIDPPGCVDIDDALHAKKLPNGNWEVGVHIADVTHFVKPGTALDAEGAARGTSVYLVDKRIDMLPMLLGTDLCSLKPYVDRFAFSVIWELDDSANIVNVNFMKSVIRSREAFSYEQAQLRIDDKTQNDELTMGMRALLKLSVKLKQKRLEAGALNLASPEVKVHMDSETSDPNEVEIKKLLATNSLVEEFMLLANISVARKIYDAFPQTAMLRRHAAPPSTNFEILNEMLNTRKNMSISLESSKALADSLDRCVDPEDPYFNTLVRIMSTRCMMAAQYFYSGAYSYPDFRHYGLAVDIYTHFTSPIRRYCDVVAHRQLAGAIGYEPLSLTHRDKNKMDMICRNINRKHRNAQFAGRASIEYYVGQVMRNNESTETGYVIKVFNNGIVVLVPKFGVEGLIRLDNLTEDPNSAAFDEVEYKLTFVPTNSDKPRDVYVFDKVEVQVRSVMDPITSKRKAELLLK
